In PubChem BioAssay AID1259415 (National Center for Advancing Translational Sciences (NCATS), 2018):
Where “and” joins values, the source holds several entries; their conditions need not be identical. Equal entries are not always repeated. The whole screen tested about 410,000 compounds, of which about 18,000 (4.4%) were called active. Inconclusive means that the source gave no clear call. Such entries were picked first, then a sample of the others. Rule as the data show it: active = activity change below about -60%; inconclusive = no clear call, values can overlap the other calls; inactive = above about -39%.

Assay: qHTS Assay for inhibitors of the human cytomegalovirus (HCMV)
Conditions: HFF cells, HCMV-luciferase reporter, 72 h; at 57.5 µM; stronger effect = lower value
Outline: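 Inhibition of viral replication was scored as loss of reporter luminescence in HFFs infected with HCMV-luciferase (MOI 1 PFU/cell) for 72 h; compounds tested at 2 doses, normalized to buffer and Salinomycin controls.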
% is scaled to controls: 0 for no effect and ±100 for the full control effect.

Row | Compound | activity change, negative = inhibition
1 | Cc1ccc(N(CC(=O)NCCSc2ccccc2)S(=O)(=O)c2ccc(F)cc2)cc1 | active: -64.9%
2 | COc1c2ccccc2c(OC)c2ccccc12 | active: -63.8%
3 | CCC(=O)NC(=S)Nc1ccc(NC(=O)c2cc3ccccc3o2)c(OC)c1 | inconclusive: -50.7%
4 | Cc1cccc(C(=O)NC(NCCc2ccccc2)C(Cl)(Cl)Cl)c1 (stereo unspecified) | active: -71.3%
5 | O=C(c1ccccc1Cl)N1CCC(c2nc3ccccc3s2)CC1 | inactive: -5.18%
6 | CN1CCCCC1CCN1c2ccccc2Sc2ccc(S(C)=O)cc21 (stereo unspecified) | inconclusive: -44.2%
7 | CCOc1cc(/C=N/NC(=O)C(=O)Nc2cc(Cl)ccc2C)ccc1O | inconclusive: -44.6%
8 | COc1ccc(NC(=O)n2ncc3cc(Cl)ccc32)cc1OC | inactive: 83.6%
9 | Cc1cccc(NC(=O)CNC(=O)[C@H]2O[C@@H](n3ccc(=O)[nH]c3=O)[C@H](O)[C@@H]2O)c1C | inactive: 27.9%
10 | Cc1ccc(NC(=O)C2=CCN(S(=O)(=O)c3ccc(F)cc3)CC2)c(C)c1 | inconclusive: -48.4%
11 | CC(C)NC(=S)N/N=C/c1c[nH]c2ccccc12 | inconclusive: -40.4%
12 | COc1ccc(OC)c(C2C3=C(COC3=O)Nc3cc4c(cc32)OCO4)c1 (stereo unspecified) | active: -84.2%
13 | CCOc1ccccc1CN1CCN(Cc2nc3c(s2)CCCC3)CC1CCO (stereo unspecified) | inconclusive: -41.4%
14 | C[C@]12CCC3=C4CCC(=O)C=C4CC[C@H]3C1CC[C@@H]2O (stereo partly specified) | inconclusive: -46.4%
15 | CC(C)COc1ccc(-c2nn(-c3ccccc3)cc2CO)cc1 | inconclusive: -43.3%
16 | O=C(OCC(=O)N1CCOCC1)c1cncc(Br)c1 | inactive: -26.7%
17 | CSc1ccccc1NC(=O)C1=COCCO1 | inconclusive: -57.2%
18 | CCCCOc1ccc(S(=O)(=O)Nc2ccc(NC(C)=O)cc2)cc1 | inconclusive: -43.7%
19 | CCOc1ccc(Nc2oc(/C=C/c3ccc(OC)c(OC)c3)nc2C#N)cc1 | inconclusive: -47.7%
20 | CN(C)S(=O)(=O)c1ccc(C(=O)Nc2ccccc2[N+](=O)[O-])cc1 | active: -65%
21 | CC(C)c1ccc2c(c1)c(SC(C)(C)C)c(CC(C)(C)C(=O)O)n2Cc1ccc(Cl)cc1 | inconclusive: -59.9%
22 | COc1cccc(NC(=O)Nc2ccc3c(c2)CCC3)c1 | inactive: -26.7%

Row | Compound | activity change, negative = inhibition
23 | COc1ccc(/C=C/C(=O)Nc2ccc(C)cc2)cc1S(=O)(=O)N1CCOCC1 | active: -73.1%
24 | CCOC(=O)c1ccc(NC(=O)c2nc[nH]c2C(=O)NC[C@H](C)O)cc1 | inactive: -16.4%
25 | COc1ccccc1C1NC(=O)NC(C)=C1C(=O)OC1CCCCC1 (stereo unspecified) | inconclusive: -46.8%
26 | O=C(Cn1nc(CNc2ccc(Cl)cc2)[n+]2c1CCCCC2)c1ccccc1 | inconclusive: -59.1%
27 | O=C(O)CCCCCCCCCCC1CCC(O)C1O (stereo unspecified) | inconclusive: -42.8%
28 | Cc1cccc(C)c1NC(=O)CCCn1c(=O)c2cccn2c2ccccc21 | inconclusive: -49.9%
29 | CCO[C@@H]1OC(C(=O)NCc2ccccc2)=C[C@H](c2ccc(C(F)(F)F)cc2)[C@H]1CCCO | inactive: -15.3%
30 | COc1ccc(NC(=O)Nc2ccccc2OC)cc1 | inactive: 60%
31 | O=C(NCC(=O)N(CC1CCCO1)C(C(=O)NC1CCCCC1)c1cccnc1)c1cccs1 (stereo unspecified) | inactive: -27.9%
32 | Cn1c(SCC(=O)Nc2cccc(Br)c2)nnc1-c1cc2ccccc2o1 | inconclusive: -41%
33 | COc1cccc(NC(=O)CCCn2c(=O)c3cccn3c3cccnc32)c1 | inconclusive: -48.4%
34 | COc1ccc2c(c1)/C(=C\c1cccc(/C=C3/C(=O)Nc4ccc(OC)cc43)n1)C(=O)N2 | active: -98%
35 | Cc1cc(C)c(C(=O)Nc2ccc(Br)c(C(F)(F)F)c2)c(C)c1 | inconclusive: -45.3%
36 | Cn1nnnc1SCCCNCc1cc(Br)ccc1OCc1ccccc1F | inconclusive: -46.7%
37 | CCOC(=O)c1cc(-c2ccccc2)n(CC(=O)Nc2ccccc2OCC)c1C | inactive: -16.5%
38 | C=CCN(CC=C)S(=O)(=O)c1ccc(C(=O)Nc2nc3c(s2)CCc2ccccc2-3)cc1 | active: -86.4%
39 | Cc1ccc(-n2cc(CN(C)Cc3nccn3C)c(-c3ccc(F)cc3)n2)cc1 | inconclusive: -44.7%
40 | Cc1cccc(OCC(=O)NCCNC(=O)c2cccnc2)c1 | active: -66.9%
41 | Cc1cc(C)cc(CC(Cc2nc3ccccc3[nH]2)c2nc3ccccc3[nH]2)c1 (stereo unspecified) | active: -101%
42 | COc1ccc(OC)c(NC(=O)c2sc3nc(C)cc(C)c3c2N)c1 | inconclusive: -40.3%
43 | O=C(c1ccc(S(=O)(=O)Cc2ccccc2Cl)c([N+](=O)[O-])c1)N1CCOCC1 | active: -69.2%
44 | CCOC(=O)C(O)(c1ccc(NC(=S)NC(=O)c2ccc(Cl)cc2Cl)c(C)c1)C(F)(F)F (stereo unspecified) | inconclusive: -55%

Compounds listed so far containing sulfur (19):
Row | Compound | activity change, negative = inhibition
1 | Cc1ccc(N(CC(=O)NCCSc2ccccc2)S(=O)(=O)c2ccc(F)cc2)cc1 | active: -64.9%
3 | CCC(=O)NC(=S)Nc1ccc(NC(=O)c2cc3ccccc3o2)c(OC)c1 | inconclusive: -50.7%
5 | O=C(c1ccccc1Cl)N1CCC(c2nc3ccccc3s2)CC1 | inactive: -5.18%
6 | CN1CCCCC1CCN1c2ccccc2Sc2ccc(S(C)=O)cc21 (stereo unspecified) | inconclusive: -44.2%
10 | Cc1ccc(NC(=O)C2=CCN(S(=O)(=O)c3ccc(F)cc3)CC2)c(C)c1 | inconclusive: -48.4%
11 | CC(C)NC(=S)N/N=C/c1c[nH]c2ccccc12 | inconclusive: -40.4%
13 | CCOc1ccccc1CN1CCN(Cc2nc3c(s2)CCCC3)CC1CCO (stereo unspecified) | inconclusive: -41.4%
17 | CSc1ccccc1NC(=O)C1=COCCO1 | inconclusive: -57.2%
18 | CCCCOc1ccc(S(=O)(=O)Nc2ccc(NC(C)=O)cc2)cc1 | inconclusive: -43.7%
20 | CN(C)S(=O)(=O)c1ccc(C(=O)Nc2ccccc2[N+](=O)[O-])cc1 | active: -65%
21 | CC(C)c1ccc2c(c1)c(SC(C)(C)C)c(CC(C)(C)C(=O)O)n2Cc1ccc(Cl)cc1 | inconclusive: -59.9%
23 | COc1ccc(/C=C/C(=O)Nc2ccc(C)cc2)cc1S(=O)(=O)N1CCOCC1 | active: -73.1%
31 | O=C(NCC(=O)N(CC1CCCO1)C(C(=O)NC1CCCCC1)c1cccnc1)c1cccs1 (stereo unspecified) | inactive: -27.9%
32 | Cn1c(SCC(=O)Nc2cccc(Br)c2)nnc1-c1cc2ccccc2o1 | inconclusive: -41%
36 | Cn1nnnc1SCCCNCc1cc(Br)ccc1OCc1ccccc1F | inconclusive: -46.7%
38 | C=CCN(CC=C)S(=O)(=O)c1ccc(C(=O)Nc2nc3c(s2)CCc2ccccc2-3)cc1 | active: -86.4%
42 | COc1ccc(OC)c(NC(=O)c2sc3nc(C)cc(C)c3c2N)c1 | inconclusive: -40.3%
43 | O=C(c1ccc(S(=O)(=O)Cc2ccccc2Cl)c([N+](=O)[O-])c1)N1CCOCC1 | active: -69.2%
44 | CCOC(=O)C(O)(c1ccc(NC(=S)NC(=O)c2ccc(Cl)cc2Cl)c(C)c1)C(F)(F)F (stereo unspecified) | inconclusive: -55%

Additional compounds follow:

Row | Compound | activity change, negative = inhibition
45 | Cc1ccc(CNC(=O)C(c2ccccc2)c2ccccc2)cc1 | inactive: 23.1%
46 | O=C1C(NS(=O)(=O)c2cccs2)=C(N2CCOCC2)C(=O)c2ccccc21 | inconclusive: -45.5%
47 | CCOc1cc(S(=O)(=O)NCCc2ccc(OC)c(OC)c2)c(OCC)cc1-n1cnnn1 | inconclusive: -40.9%
48 | C[C@H]1CCC[C@]2(C)C[C@H]3OC(=O)C(CN4CCCCCC4)[C@H]3C=C12 (stereo partly specified) | inconclusive: -54.3%
49 | O=C(Cc1c(F)cccc1Cl)N1CCCC1 | inconclusive: -44.4%
50 | COc1ccccc1Oc1ncnc2c1oc1ccccc12 | inconclusive: -49.4%
51 | CCc1ccc(NC(=O)c2ccc(Cn3nc(N4CCN(c5ccccc5)CC4)ccc3=O)o2)cc1 | inconclusive: -56.8%
52 | COc1cc2c(cc1OC)C(c1ccccc1)N(C(=O)c1ccco1)CC2 (stereo unspecified) | inconclusive: -54.5%
53 | CCc1ccc([C@@H]2CC(=O)[C@@H]3CN(S(=O)(=O)c4ccccc4)[C@H](c4ccc(OC)cc4)C[C@@H]3N2S(=O)(=O)c2ccc(C)cc2)cc1 | inactive: -2.7%
54 | O=C(CCC1COc2ccccc2O1)Nc1ccc(Cl)cn1 (stereo unspecified) | inconclusive: -51.6%
55 | Clc1ccccc1COc1ccccc1-c1nnco1 | inconclusive: -47%
56 | c1ccc(OCCNc2nc(NCC3CC3)nc3cc(-c4ccccc4)sc23)cc1 | inconclusive: -40.3%
57 | CC(=O)N1CCN(CC(O)COc2ccc(Br)cc2)CC1 (stereo unspecified) | inactive: 21.1%
58 | CCc1ccccc1NC(=O)NNS(=O)(=O)c1cc(C)ccc1C | inactive: -1.37%
59 | CC1CC(C)CN(C(=O)C(C)N(C)CC(=O)Nc2ccccc2Cl)C1 (stereo unspecified) | inactive: 40%
60 | CC(C)OC(=O)c1ccc(NCc2cc(O)ccc2O)cc1 | active: -62.7%
61 | Cc1cc2c(OCC(O)CN3CCCC3)cccc2[nH]1 (stereo unspecified) | inconclusive: -43.6%
62 | Nc1nc(CSC(=S)N2CCN(c3ccccc3)CC2)nc(Nc2ccccc2)n1 | inconclusive: -57.1%
63 | CC(=O)c1c[nH]c(C(=O)NCC2CCCO2)c1 (stereo unspecified) | inactive: 32.3%
64 | O=C(OCc1ccccc1)N1CCC2CC1c1cc(NCCc3ccccc3)ccc12 (stereo unspecified) | inactive: -5.78%
65 | Cc1ccccc1Cn1ccc(NC(=O)c2cnn3cccnc23)n1 | inconclusive: -51.2%
66 | O=C(CSc1nnc(-c2cccs2)n1-c1ccccc1)NCc1ccc2c(c1)OCO2 | inconclusive: -40.8%

Molecules listed so far that have a nitro group on carbon (2):
Row | Compound | activity change, negative = inhibition
20 | CN(C)S(=O)(=O)c1ccc(C(=O)Nc2ccccc2[N+](=O)[O-])cc1 | active: -65%
43 | O=C(c1ccc(S(=O)(=O)Cc2ccccc2Cl)c([N+](=O)[O-])c1)N1CCOCC1 | active: -69.2%

Later entries.

Row | Compound | activity change, negative = inhibition
67 | O=C(N[C@@H](Cc1ccc(O)cc1)C(=O)O)c1ccc(C(F)(F)F)cc1 | inconclusive: -40.2%
68 | CC(=O)c1sc2nc(-c3ccc(C)cc3)c3c(c2c1N)CCCC3 | inconclusive: -58.7%
69 | CCC(C)NCCCCOc1ccc(Cl)cc1C (stereo unspecified) | inconclusive: -40.4%
70 | Cc1c([N+](=O)[O-])cnc(Sc2ccccc2)c1[N+](=O)[O-] | active: -99.4%
71 | CCOC(=O)c1ccc(NC(=O)C2=C(C)C(=O)OC23CCN(C(C)=O)CC3)cc1 | inconclusive: 0%
72 | O=C(NCCc1ccc(Cl)cc1)C12CC3CC(CC(O)(C3)C1)C2 | inactive: 45.9%
73 | CC(=O)Nc1ccc(/C(C)=N/Nc2nc(Nc3cccc4ccccc34)nc(N3CCOCC3)n2)cc1 | active: -62.2%
74 | Cc1nn(-c2ccccc2)c2sc(C(=O)c3c(N)n(C)c(=O)n(C)c3=O)cc12 | inactive: -8.86%
75 | CS(=O)(=O)NCCSCc1c(F)cccc1Cl | inconclusive: -47.4%
76 | CC(C)(C)c1cc(Br)c(O)c(N=Nc2ccc(S(=O)(=O)N3CCOCC3)cc2)c1 | inconclusive: -45.4%
77 | Cc1ccc(Cl)cc1-n1c(SCC(=O)NCc2ccccc2)nc2n[nH]c(C)c2c1=N | inconclusive: -48.1%
78 | CC(C)(C)C(=O)NC(=S)Nc1ccc(S(=O)(=O)Nc2nccs2)cc1 | inconclusive: -42.1%
79 | CCOc1ccc(CNC(=O)c2cc3cc(S(=O)(=O)N4CCCCC4)ccc3n2C)cc1 | active: -68.1%
80 | O=C(O)c1cccc(NS(=O)(=O)c2ccc3c(c2)C(=O)c2ccccc2C3=O)c1 | inconclusive: -41.5%
81 | CC1CCN(S(=O)(=O)c2cc(C(=O)N3CCN(c4ncccn4)CC3)ccc2Br)CC1 | active: -64.1%
82 | Oc1ccc(NCc2ccccc2OCc2ccccc2)cc1 | inconclusive: -56.8% and inconclusive: -50%
83 | FC(F)(F)c1nc(N2CCN(c3ccccc3)CC2)nc2c1CCCCC2 | inconclusive: -41.5%
84 | Cn1cccc1/C=N/n1c(-c2ccc(Cl)cc2)n[nH]c1=S | inconclusive: -44.7%
85 | O=C(CN1CCN(c2ccccn2)CC1)N(c1ccccc1)c1ccc2ccccc2c1 | inconclusive: -49%
86 | COc1ccc(-c2n[nH]c(C)c2-c2cnn(-c3ccccc3)c2)c(O)c1C | active: -77.4%
